Measurements: PubChem BioAssay AID504834 (National Center for Advancing Translational Sciences (NCATS), 2011)
The campaign covered roughly 320,000 compounds. About 22,000 (6.9%) were called active. The inconclusive results got no clear call from the source; some entries with a clear call stand among them for comparison. The call rests on the fitted dose curve; in most records, active means well fitted inhibition curve with a large enough effect; inconclusive means small, poorly fitted or top-dose-only effect, or another doubt; inactive means no such curve, though single readings can be large or run the other way. A potency beside an inconclusive call is a rough fit, not a confirmed value.

Test: Primary qHTS for delayed death inhibitors of the malarial parasite plastid, 96 hour incubation
Details: P. falciparum luciferase reporter growth; series mostly up to 28.7 µM; activity change, negative = inhibition: at the top concentration
In short: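 Plates of compound plus infected erythrocytes (2% hematocrit, 0.05% parasitemia final) incubate 96 hours, 37 C, 5% CO2. Detection reagent added; reduced luminescence from the parasites' luciferase reporter flags inhibition.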
On the % scale 0 is the no-effect control and ±100 the full control effect; potency means the concentration at half of the fitted maximal effect.

SMILES | Potency | activity change, negative = inhibition
COc1ccc(C(=O)Oc2c(OC)cc(C(=S)N3CCOCC3)cc2OC)cc1 | inconclusive: 11.7 µM [inhibitor, partial curve] | 
Cc1ccc(OCCn2cc(/C=C/C(=O)O)c3ccccc32)cc1 | inconclusive: 1.85 µM [inhibitor, full curve, poor fit] | 
COc1ccc(CN(C(=O)/C=C/c2ccco2)C2CCS(=O)(=O)C2)cc1 (stereo unspecified) |  | inactive: -0.698%
CN(C)S(=O)(=O)c1ccc(Cl)c(C(=O)Nc2nc3ccccc3[nH]2)c1 | inconclusive: 2.33 µM [inhibitor, partial curve, poor fit] | 
CCOc1ccc(CN(C)C(=O)CCN2C(=O)c3ccccc3C2=O)cc1OC |  | inactive: 26.8%
O=C(Cc1ccccn1)c1ccccc1 | inconclusive: 18.5 µM [inhibitor, single point] | 
Cc1onc(-c2ccccc2Cl)c1C(=O)N1CCOC12CCN(c1cccc(F)n1)CC2 | inconclusive: 1.04 µM [inhibitor, full curve, poor fit] | 
Cc1cc(=O)oc2cc(OCCCC[n+]3ccccc3)ccc12 | inconclusive: 2.94 µM [inhibitor, full curve] | 
O=C(Nc1ccc2c(c1)OCCO2)c1cccc(Br)c1 |  | inactive: -1.14%
COc1ccc2[nH]cc(CCNS(=O)(=O)c3ccc(F)cc3)c2c1 |  | inactive: -44.3%
CCc1ccccc1NC(=O)CNC(=O)c1n[nH]c(=O)c2ccccc12 |  | inactive: -18.3%
C=CCn1c(SCC(=O)NCCCC)nc2scc(-c3ccco3)c2c1=O | inconclusive: 10.4 µM [inhibitor, single point] | 
CN(C)C(=O)c1c2c(nc3ccccc13)CCCC2 | inconclusive: 5.22 µM [inhibitor, partial curve, poor fit] | 
O=C(C1=C[C@H](c2coc3ccccc3c2=O)C[C@H](OCCCCO)O1)N1CCN(Cc2ccccc2)CC1 | inconclusive: 11.7 µM [inhibitor, partial curve] | 
O=C(CSCc1ccc(F)cc1)N1CCN(c2ccc(F)cc2)CC1 |  | inactive: 37.4%
C[C@@H](CSc1ccccc1)CN1CC[C@H](O)CCC1=O | inconclusive: 18.5 µM [inhibitor, single point] | 
COCCCNc1nc(N)c([N+](=O)[O-])c(Nc2cc(OC)ccc2OC)n1 | inconclusive: 0.294 µM [inhibitor, full curve, poor fit] | 
CCn1cc(C(=O)NCCCN(CC(C)C)CC(C)C)c(=O)c2cc(S(=O)(=O)N3CCOCC3)ccc21 | inconclusive: 18.5 µM [inhibitor, single point] | 
CCCC/C(O)=C1\C(=O)CCCC1=NCCc1c(C)[nH]c2ccccc12 | inconclusive: 10.4 µM [inhibitor, partial curve] | 
Nc1ncc(-c2nnnn2-c2ccc(Cl)cc2)c(-c2ccc(Cl)cc2)n1 | inconclusive: 18.5 µM [inhibitor, single point] | 
COc1cc(Cn2c(N)c(C(=O)NCc3ccco3)c3nc4ccccc4nc32)cc(OC)c1OC | active: 1.65 µM | 
CCCCCCCCCCCCN1C(=O)CSC1c1cccnc1 (stereo unspecified) | active: 1.65 µM | 
CCN(CC)C(=S)Oc1c(Cl)cccc1Cl |  | inactive: 20.2%
Cc1cccc(NC(=O)c2ccc(S(=O)(=O)N3CCCC3)cc2)c1C |  | inactive: -19.8%

SMILES | Potency | activity change, negative = inhibition
Cc1ccccc1NC(=O)COc1ccc(Br)cc1C | inconclusive: 18.5 µM [inhibitor, single point] | 
Cn1c(CN2CCN(c3cccc(Cl)c3)CC2)nc2ccccc21 | inconclusive: 18.5 µM [inhibitor, single point] | 
Fc1ccc(NCc2nnc(SCc3ccccc3)o2)cc1 | inconclusive: 18.5 µM [inhibitor, single point] | 
COc1ccc(NC2CCCCC2NS(=O)(=O)c2ccc(C)cc2)cc1 (stereo unspecified) | inconclusive: 18.5 µM [inhibitor, single point] | 
N=C(c1cccc([N+](=O)[O-])c1)N1CCCCC1 | inconclusive: 18.5 µM [inhibitor, single point] | 
COCCNC(=S)N1CCc2cc(OC)c(OC)cc2C1COc1ccc(F)cc1 (stereo unspecified) |  | inactive: 35.3%
Cc1ccc(C2CC(c3cccc(NS(C)(=O)=O)c3)=NN2S(C)(=O)=O)cc1 (stereo unspecified) |  | inactive: 39.8%
O=C(c1cccc(S(=O)(=O)N2CCOCC2)c1)N1CCCC(C(F)(F)F)C1 (stereo unspecified) |  | inactive: 2.11%
CC(C(=O)N1CCC2(CC1)OCCO2)C1Sc2ccccc2NC1=O (stereo unspecified) | inconclusive: 10.4 µM [inhibitor, single point] | 
NS(=O)(=O)c1ccc(CCNC(=O)C2CCCO2)cc1 (stereo unspecified) | inconclusive: 18.5 µM [inhibitor, single point] | 
CC(Sc1ncc(C#N)c(N)n1)C(=O)Nc1ccccc1 (stereo unspecified) | inconclusive: 8.28 µM [inhibitor, partial curve, poor fit] | 
Cc1ncsc1CCOC(=O)C12CC3CC(CC(C3)C1)C2 | inconclusive: 1.65 µM [inhibitor, single point] | 
CCOC(=O)c1c(NC(=O)CCC(=O)N2CCOCC2)sc2c1CC(C)(C)OC2 | inconclusive: 4.15 µM [inhibitor, single point] | 
CN(c1cccc(Cl)c1)S(=O)(=O)c1cccc(C(=O)Nc2nc3ccccc3[nH]2)c1 | inconclusive: 6.57 µM [inhibitor, partial curve] | 
CCOC(=O)c1cc2occc2n1CC(=O)Nc1ccc(OC)cc1OC |  | inactive: 19.7%
O=C(c1ccc(F)cc1Cl)N1CCC2(CC1)OCCO2 |  | inactive: 0%
CCc1ccc(NC(=O)CSc2nnnn2C)cc1 |  | inactive: 15.3%
COc1ccc(CNC(=O)Cc2csc(NC(=O)Nc3ccccc3OC)n2)cc1 | inconclusive: 18.5 µM [inhibitor, single point] | 
Cc1ccnc(N2CCC(C(=O)Nc3ccc4c(c3)OCCO4)CC2)n1 |  | inactive: -1.47%
CCOc1ccc(S(=O)(=O)Nc2cccc(C(=O)N3CCN(c4ccccc4O)CC3)c2)cc1 | inconclusive: 18.5 µM [inhibitor, single point] | 
Cc1ccc(S(=O)(=O)NC(=O)C2CCCCC2)cc1 |  | inactive: 18.8%
O=C(Nc1ccc(-c2nnco2)cc1)c1ccccc1 |  | inactive: 17.5%
NS(=O)(=O)c1ccc(NC(=O)CSc2ccccc2)cc1 |  | inactive: 133%
COC(=O)/C(=N/Nc1ccccc1C)N1CCCc2ccccc21 | inconclusive: 1.31 µM [inhibitor, partial curve, poor fit] | 

20 entries from above in another layout.
SMILES	Potency	activity change, negative = inhibition
CN(C)C(=O)c1c2c(nc3ccccc13)CCCC2	inconclusive: 5.22 µM [inhibitor, partial curve, poor fit]	
O=C(C1=C[C@H](c2coc3ccccc3c2=O)C[C@H](OCCCCO)O1)N1CCN(Cc2ccccc2)CC1	inconclusive: 11.7 µM [inhibitor, partial curve]	
O=C(CSCc1ccc(F)cc1)N1CCN(c2ccc(F)cc2)CC1		inactive: 37.4%
C[C@@H](CSc1ccccc1)CN1CC[C@H](O)CCC1=O	inconclusive: 18.5 µM [inhibitor, single point]	
COCCCNc1nc(N)c([N+](=O)[O-])c(Nc2cc(OC)ccc2OC)n1	inconclusive: 0.294 µM [inhibitor, full curve, poor fit]	
CCn1cc(C(=O)NCCCN(CC(C)C)CC(C)C)c(=O)c2cc(S(=O)(=O)N3CCOCC3)ccc21	inconclusive: 18.5 µM [inhibitor, single point]	
CCCC/C(O)=C1\C(=O)CCCC1=NCCc1c(C)[nH]c2ccccc12	inconclusive: 10.4 µM [inhibitor, partial curve]	
Nc1ncc(-c2nnnn2-c2ccc(Cl)cc2)c(-c2ccc(Cl)cc2)n1	inconclusive: 18.5 µM [inhibitor, single point]	
COc1cc(Cn2c(N)c(C(=O)NCc3ccco3)c3nc4ccccc4nc32)cc(OC)c1OC	active: 1.65 µM	
CCCCCCCCCCCCN1C(=O)CSC1c1cccnc1 (stereo unspecified)	active: 1.65 µM	
CCN(CC)C(=S)Oc1c(Cl)cccc1Cl		inactive: 20.2%
Cc1cccc(NC(=O)c2ccc(S(=O)(=O)N3CCCC3)cc2)c1C		inactive: -19.8%
Cc1ccccc1NC(=O)COc1ccc(Br)cc1C	inconclusive: 18.5 µM [inhibitor, single point]	
Cn1c(CN2CCN(c3cccc(Cl)c3)CC2)nc2ccccc21	inconclusive: 18.5 µM [inhibitor, single point]	
Fc1ccc(NCc2nnc(SCc3ccccc3)o2)cc1	inconclusive: 18.5 µM [inhibitor, single point]	
COc1ccc(NC2CCCCC2NS(=O)(=O)c2ccc(C)cc2)cc1 (stereo unspecified)	inconclusive: 18.5 µM [inhibitor, single point]	
N=C(c1cccc([N+](=O)[O-])c1)N1CCCCC1	inconclusive: 18.5 µM [inhibitor, single point]	
COCCNC(=S)N1CCc2cc(OC)c(OC)cc2C1COc1ccc(F)cc1 (stereo unspecified)		inactive: 35.3%
Cc1ccc(C2CC(c3cccc(NS(C)(=O)=O)c3)=NN2S(C)(=O)=O)cc1 (stereo unspecified)		inactive: 39.8%
O=C(c1cccc(S(=O)(=O)N2CCOCC2)c1)N1CCCC(C(F)(F)F)C1 (stereo unspecified)		inactive: 2.11%

Later entries:

SMILES | Potency | activity change, negative = inhibition
O=c1[nH]c(NC2CCCCC2)nnc1Cc1ccccc1 | inconclusive: 18.5 µM [inhibitor, single point] | 
CCCCOC(=O)CSc1nnc(-c2cc(OC)c(OC)c(OC)c2)o1 | inconclusive: 14.7 µM [inhibitor, partial curve, poor fit] | 
CCOC(=O)C1(CCc2ccccc2)CCN(Cc2ccc(OC)cc2)CC1 | inconclusive: 20.8 µM [inhibitor, single point] | 
CCC(C)NC(=O)c1nn(Cc2ccccc2)c(=O)c2ccccc12 (stereo unspecified) | inconclusive: 11.7 µM [inhibitor, single point] | 
O=C(Nc1ccc(S(=O)(=O)N2CCCC2)cc1)c1ccc([N+](=O)[O-])cc1 | inconclusive: 16.5 µM [inhibitor, single point] | 
C/C(=N/NC(=O)c1cccs1)c1cccc(NC(=O)C2CC2)c1 | inconclusive: 0.0522 µM [inhibitor, full curve, poor fit] | 
CCOc1ncccc1C(=O)OCC(=O)N1CCN(S(=O)(=O)c2ccc(Cl)cc2)CC1 | inconclusive: 9.28 µM [inhibitor, single point] | 
COc1ccc2c(c1)-c1nc(/N=C/c3c(O)ccc4ccccc34)sc1CC2 | active: 4.65 µM | 
O=C(O)c1ccccc1C(=O)NCc1ccc(F)cc1 | inconclusive: 5.22 µM [inhibitor, partial curve] | 
CC(C)NC(=O)COCc1cc(-c2ccc3c(c2)OCO3)on1 |  | inactive: -15.2%
COc1cc2c(cc1NC(=O)CSc1nnc(Cc3cccs3)n1Cc1ccco1)oc1ccccc12 | inconclusive: 18.5 µM [inhibitor, single point] | 
O=[N+]([O-])c1ccc(/C=N/NC2=NS(=O)(=O)c3ccccc32)cc1 |  | inactive: -7.17%
Cc1cc(OCc2cc(C(=O)N(C)Cc3ccccn3)no2)cc(C)c1Cl |  | inactive: 33.6%
CCc1ccc(C2c3[nH]c4ccccc4c3CCN2C(=O)c2ccc(=O)n(C)n2)cc1 (stereo unspecified) | inconclusive: 18.5 µM [inhibitor, single point] | 
COc1ccc(CN2CCN(S(=O)(=O)c3ccc(NC(C)=O)cc3)CC2)cc1 | inconclusive: 14.7 µM [inhibitor, single point] | 
N#Cc1nc(Cc2ccccc2)oc1N1CCCC1 |  | inactive: -15% [at 5.75 µM]
COC(=O)C1=C(c2cccc(C#N)c2)C[C@@H]2CC[C@H]1N2C(=O)NCCCOC(C)C | inconclusive: 5.22 µM [inhibitor, single point] | 
CCc1cc2c(=O)n(Cc3ccco3)c(SCc3c(C)noc3C)nc2s1 | inconclusive: 2.33 µM [inhibitor, full curve] | 
COc1ccc(CC(=O)NCCc2ccc(Cl)cc2Cl)cc1 | inconclusive: 3.7 µM [inhibitor, single point] | 
CC(C)(C)NC(=O)NC(=O)CN1CCN(c2ccc(O)cc2)CC1 | inconclusive: 18.5 µM [inhibitor, single point] | 
Cc1cc(C)cc(Nc2ccc([N+](=O)[O-])nc2[N+](=O)[O-])c1 | inconclusive: 11.7 µM [inhibitor, partial curve] | 
O=C(NC1CCCCC1)NC1(C(=O)NCCCN2CCOCC2)CCCCC1 |  | inactive: 22.2%
CN(C(=O)COc1cc(=O)n(C)c2ccccc12)c1cccc(Cl)c1 | inconclusive: 10.4 µM [inhibitor, single point] | 
